Experimental data published in paper PMC8384837.
Residue numbers refer to the chain shown, from its start. Some of the results follow. For some assays here: At the low end of the ranking the order means little.

Key:
Details in all cases: yeast three-hybrid, YBZ-1, SC-Leu-His + 0.5 mM 3-AT, 4 days
[1] = target: T1, PUM1 PUF domain R5-SAC C1007S + R1008A + Q1011C (Homo sapiens) (UniProt Q14671)
T1 sequence: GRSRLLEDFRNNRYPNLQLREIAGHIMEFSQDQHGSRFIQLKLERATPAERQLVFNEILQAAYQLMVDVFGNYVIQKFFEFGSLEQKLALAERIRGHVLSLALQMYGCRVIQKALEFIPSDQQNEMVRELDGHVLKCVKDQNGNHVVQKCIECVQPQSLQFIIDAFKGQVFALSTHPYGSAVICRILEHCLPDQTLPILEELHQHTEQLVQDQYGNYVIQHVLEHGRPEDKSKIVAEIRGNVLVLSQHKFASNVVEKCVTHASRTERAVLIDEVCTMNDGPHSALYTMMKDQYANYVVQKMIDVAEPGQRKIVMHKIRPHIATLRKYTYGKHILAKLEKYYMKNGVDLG

[2] = target: T2, PUM1 PUF domain R5-SAG C1007S + R1008A + Q1011G (UniProt Q14671)
T2 sequence: T1 sequence with C184G

[3] = target: T3, PUM1 PUF domain R5-SAP C1007S + R1008A + Q1011P (Homo sapiens) (UniProt Q14671)
T3 sequence: T1 sequence with C184P

[4] = target: T4, PUM1 PUF domain R5-SAS C1007S + R1008A + Q1011S (Homo sapiens) (UniProt Q14671)
T4 sequence: T1 sequence with C184S

[5] = target: T5, PUM1 PUF domain R5-SAT C1007S + R1008A + Q1011T (Homo sapiens) (UniProt Q14671)
T5 sequence: T1 sequence with C184T

[6] = target: T6, PUM1 PUF domain R5-SED C1007S + R1008E + Q1011D (UniProt Q14671)
T6 sequence: T1 sequence with A181E, C184D

[7] = target: T7, PUM1 PUF domain R5-SEQ C1007S + R1008E (UniProt Q14671)
T7 sequence: T1 sequence with A181E, C184Q

[8] = target: T8, PUM1 PUF domain R5-SER C1007S + R1008E + Q1011R (UniProt Q14671)
T8 sequence: T1 sequence with A181E, C184R

[9] = target: T9, PUM1 PUF domain R5-SGC C1007S + R1008G + Q1011C (UniProt Q14671)
T9 sequence: T1 sequence with A181G

[10] = target: T10, PUM1 PUF domain R5-SGG C1007S + R1008G + Q1011G (Homo sapiens) (UniProt Q14671)
T10 sequence: T1 sequence with A181G, C184G

[11] = target: T11, PUM1 PUF domain R5-SGK C1007S + R1008G + Q1011K (Homo sapiens) (UniProt Q14671)
T11 sequence: T1 sequence with A181G, C184K

[12] = target: T12, PUM1 PUF domain R5-SGS C1007S + R1008G + Q1011S (UniProt Q14671)
T12 sequence: T1 sequence with A181G, C184S

[13] = target: T13, PUM1 PUF domain R5-SGT C1007S + R1008G + Q1011T (UniProt Q14671)
T13 sequence: T1 sequence with A181G, C184T

[14] = target: T14, PUM1 PUF domain R5-SGV C1007S + R1008G + Q1011V (UniProt Q14671)
T14 sequence: T1 sequence with A181G, C184V

[15] = target: T15, PUM1 PUF domain R5-SIS C1007S + R1008I + Q1011S (Homo sapiens) (UniProt Q14671)
T15 sequence: T1 sequence with A181I, C184S

[16] = target: T16, PUM1 PUF domain R5-SKC C1007S + R1008K + Q1011C (Homo sapiens) (UniProt Q14671)
T16 sequence: T1 sequence with A181K

[17] = target: T17, PUM1 PUF domain R5-SKN C1007S + R1008K + Q1011N (Homo sapiens) (UniProt Q14671)
T17 sequence: T1 sequence with A181K, C184N

[18] = target: T18, PUM1 PUF domain R5-SKR C1007S + R1008K + Q1011R (Homo sapiens) (UniProt Q14671)
T18 sequence: T1 sequence with A181K, C184R

[19] = target: T19, PUM1 PUF domain R5-SLH C1007S + R1008L + Q1011H (Homo sapiens) (UniProt Q14671)
T19 sequence: T1 sequence with A181L, C184H

[20] = target: T20, PUM1 PUF domain R5-SMG C1007S + R1008M + Q1011G (Homo sapiens) (UniProt Q14671)
T20 sequence: T1 sequence with A181M, C184G

GGCUAGAACUAGUGGAUCCCCCGGCGCCCGGCGGCUCGAGCCCGGGUAAGUGUAAAUAGUCUGCAUGCCGCCGGGCGCCAUGCCUGCAGGUCGACUCUAGAAAACAUG
binding signal (log2 enrichment (interaction score)) [1]: -0.06
binding signal (log2 enrichment (interaction score)) [2]: -3.07
binding signal (log2 enrichment (interaction score)) [3]: -1.46
binding signal (log2 enrichment (interaction score)) [4]: -1.85
binding signal (log2 enrichment (interaction score)) [5]: -3.88
binding signal (log2 enrichment (interaction score)) [6]: < -6.54
binding signal (log2 enrichment (interaction score)) [7]: < -5.67
binding signal (log2 enrichment (interaction score)) [8]: < -9.16
binding signal (log2 enrichment (interaction score)) [9]: -3.05
binding signal (log2 enrichment (interaction score)) [10]: -1.6
binding signal (log2 enrichment (interaction score)) [11]: -2.21
binding signal (log2 enrichment (interaction score)) [12]: -3.61
binding signal (log2 enrichment (interaction score)) [13]: -3.41
binding signal (log2 enrichment (interaction score)) [14]: -3.48
binding signal (log2 enrichment (interaction score)) [15]: 0.39
binding signal (log2 enrichment (interaction score)) [16]: 0.47
binding signal (log2 enrichment (interaction score)) [17]: 0.83
binding signal (log2 enrichment (interaction score)) [18]: -0.41
binding signal (log2 enrichment (interaction score)) [19]: -1.08
binding signal (log2 enrichment (interaction score)) [20]: -0.63
